Measurements from patent publication US20230348568A1 (US Dept. of Health and Human Services, published 2023).
No constants are given. Whether binding was seen depends on the method and setting. Some entries that bind do so weakly or less than the wild type.

By UniProt entry, the sequences of proteins in these tests, tags left out. Where a name states a change or a piece, a line headed by the entry shows the natural chain unless it says otherwise.
UniProt P03205: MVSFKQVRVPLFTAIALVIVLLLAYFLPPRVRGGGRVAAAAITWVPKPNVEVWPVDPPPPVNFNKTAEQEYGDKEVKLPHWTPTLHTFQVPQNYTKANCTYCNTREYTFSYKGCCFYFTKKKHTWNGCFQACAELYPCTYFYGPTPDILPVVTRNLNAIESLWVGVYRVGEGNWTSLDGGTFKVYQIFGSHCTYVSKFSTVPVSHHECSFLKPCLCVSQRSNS

Assays:
[1] = molecular target: Epstein-Barr virus glycoprotein 42 (gp42) (Epstein-Barr virus) (UniProt P03205); experiment: BLI cross-competition on gH/gL/gp42
[2] = molecular target: Epstein-Barr virus glycoprotein 42 (gp42) (Epstein-Barr virus) (UniProt P03205); experiment: BLI cross-competition on gp42 (type I and type II)

B1: A10 monoclonal antibody (cynomolgus monkey variable regions on human IgG1 constant region) (antibody, V domains shown)
VH: QVQLQESGPGLVKPSQTLSLTCAISGDSVSSNSATWNWIRQSPSRGLEWLGRTYYRSKWYYDYAQSVQNRISINPDTSKNQFSLQLNSVTPEDMAVYYCARGDFDAFDFWGQGLRVTVSS
VL: SYELTQPPSVSAASGQTARITCGGDNIGSKNVQWYQQKPAQAPVLVIYADSKRPSGVPERFSGSNSGNTATLTISGVEAGDEADYYCQVWDRSSNIFGVGTRLTVLG
Question: Which results are given for B1?
Answer: binding [1]: binds; binding [2]: binds
